Results reported in patent US20020123456A1, “Methods of identifying agents affecting atrophy and hypertrophy” (priority 2001, published 2002).
At least one structure is not confirmed: it was looked up by name or label, or the drawing left a doubt.

What was measured:
mouse plantaris muscle = experiment: Compensatory hypertrophy of mouse plantaris; assay type: in vivo; details: 7 d, FK506 3 mg kg-1 s.c. daily
C2C12 myotubes = experiment: C2C12 myotube hypertrophy (myotube diameter); assay type: cell-based; details: LY294002 10 μM; for IGF-1-induced myotube hypertrophy: D2 myotubes, IGF-1 10 ng ml-1 plus CsA 5 μM, rapamycin 2 ng ml-1, PD98059 or Ara-C 10 μM
Description: FIG. 9. […] Myotubes were treated at day 2 after fusion with the PI(3)K inhibitor LY294002 (LY; 10 μM), the mTOR inhibitor rapamycin (RAP, 2 ng ml-1), IGF-1 (10 ng ml-1) and with a combination of IGF-1 and each inhibitor, and analyzed for morphological effects at day 4. […] C2C12 myotubes were treated at day 2 after induction of differentiation with IGF-1 (10 ng ml-1) or a combination of Ara-C (10 μM) and IGF-1 (10 ng ml-1), and analysed the next day. Untreated myotubes are shown (CON). […] Quantification of myotube diameters is shown. The average number of nuclei per myotube is presented for each condition in the bottom row.
To distinguish between effects on myoblast differentiation and those on the trophic state of existing myofibres, we exploited the C2C12 myoblast differentiation system. C2C12 myoblasts proliferate until they reach confluence; then, in serum-poor medium, the myoblasts fuse into multi-nucleated myotubes. Differentiated myotubes are predominant by 2 days after fusion (D2 myotubes) and survive for another 3 days. […] IGF-1-induced myotube hypertrophy, as measured by an increase in diameter and an increase in total protein, is normally accompanied by an increase in nuclei within the myofibres. […]
C2C12 myoblasts were cultured and transfected as described (Glass, D. J. et al. Cold Spring Harb. Symp. Quant. Biol. 57, 53-62 (1992)). […] Myotube diameter was quantified as follows: 10 fields were chosen randomly, and approximately 10 myotubes were measured per field. The average diameter per myotube was calculated as the mean of ten measurements taken along the length of the myotube. For the constitutively active Akt, kinaseinactive Akt, wild-type Akt, wild-type SHIP2, dominant-negative SHIP2, constitutively active p70S6K and dominant-negative GSK3β constructs, transfected myotubes were determined by the co-expression of enhanced green fluorescent protein (EGFP; see below for construct details); thus, only transfected myotubes were assessed for hypertrophy. […]

TA muscle fibres = experiment: Transfection in vivo of tibialis anterior (TA) muscle, fibre cross-sectional area; design: species or system mouse; details: concurrent administration of rapamycin; data not shown
hindlimb muscles = experiment: Recovery of muscle weight after hindlimb suspension (HLS); assay type: in vivo; details: rat; rapamycin 1.5 mg kg-1 i.p. or CsA 15 mg kg-1 s.c. daily during recovery
rat plantaris muscle = experiment: Compensatory hypertrophy of the plantaris after surgical overload; assay type: in vivo; details: once daily CsA 15 mg kg-1 s.c. or rapamycin 1.5 mg kg-1 i.p.
Description: Female Sprague-Dawley rats (250-275 g) were anaesthetized with ketamine/xylazine (50/10 mg kg-1, intraperitoneally); with the use of aseptic surgical techniques the soleus, medial gastrocnemius and lateral gastrocnemius muscles were removed bilaterally, producing a functional overload on the plantaris muscles. In some instances, plasmid DNA (100 μl) was injected into the muscle immediately after the procedure. The hindlimbs of adult female SD rats (225-250 g) were unloaded by suspending their tails with a tail-traction bandage as described29. At the appropriate times, rats were killed and hindlimb muscles were removed, weighed and frozen in isopentane cooled with liquid nitrogen. Weight-matched surgically untreated rats served as controls.
Transfection in vivo. Constructs used encoded the following: (1) myristoylated, c.a. […]
Muscle fibre size was obtained from digitally imaged serial cross-sections of cryostat-sectioned muscle. Individual muscle fibres were outlined and cross-sectional area was determined with a computerassisted image analysis system (MetaMorph™; Universal Imaging Corporation). All data are expressed as means ±s.e.m. […]

PI(3)K/Akt/mTOR pathway = experiment: PI(3)K/Akt/mTOR and ERK signalling in C2C12 differentiated myotubes (immunoblot, kinase assay); assay type: cell-based; details: IGF-1 10 ng ml-1 15 min, LY294002 10 μM
Text: As a first step towards examining the roles of the calcineurin/NFAT and PI(3)K/Akt pathways during IGF-induced myotube hypertrophy, we added IGF-1 to differentiated myotubes and determined whether these pathways were activated. Calcineurin is a protein phosphatase that is activated by increases in intracellular calcium levels, which in turn dephosphorylates the NFAT transcription factors; this dephosphorylation results in the translocation of NFATs to the nucleus and subsequent gene transcription. NFAT dephosphorylation and nuclear translocation are therefore markers of calcineurin activation (FIG. 7, right). For markers of activation of the PI(3)K/Akt pathway, the phosphorylation of Akt itself or of downstream targets such as p70S6 kinase (p70S6K), PHAS-1/4E-BP1 or GSK3 were used (FIG. 7).
Protein analysis of total cell lysates was conducted as described8. The antibodies used were anti-phospho-Erk1/2 (Thr 202/Tyr 204; NEB); anti-phospho-Akt (Ser 473; NEB); anti-phospho- GSK3 (Ser 9/21; NEB); anti-phospho-p70S6K (Thr 389; NEB); anti-phospho-PHAS-1/4E-BP1 (Thr 65; NEB); anti-Erk1/2 (UBI), anti-Akt (NEB), anti-p70S6K (C-18; Santa Cruz), anti-PHAS-1/4EBP1 (Zymed) and anti-NFAT-C1 (7A6; Santa Cruz).
Immunoprecipitations and immunoblotting were performed as described. Proteins were detected with the chemiluminescence detection system Renaissance; NEN). To measure the enzymatic activity of p70S6K an immunocomplex kinase assay was performed as described (Azpiazu, I., Saltiel, A. R., DePaoli-Roach, A. A. & Lawrence, J. C. J. Biol. Chem. 271, 5033-5039 (1996)).

SMILES	increase in muscle weight associated with compensatory hypertrophy (mouse plantaris muscle)	IGF-1-induced myotube hypertrophy (C2C12 myotubes)	hypertrophy induced by c.a. Akt in normal and denervated fibres (TA muscle fibres)	recovery of muscle weight (muscle growth) during 7-day reloading after 14 d HLS (hindlimb muscles)	compensatory hypertrophy: increase in plantaris muscle weight (rat plantaris muscle; 7, 14 (or 30) d)	compensatory hypertrophy: increase in plantaris fibre size (rat plantaris muscle)	myotube size / hypertrophy, agent alone (C2C12 myotubes; D2 myotubes treated at day 2 after fusion, analysed day 4, IGF-1 10 ng ml-1, CsA 5 μM, Ca-I 1 μM)	IGF-1-induced Akt / PI(3)K/Akt pathway activation (PI(3)K/Akt/mTOR pathway; CsA 5 μM, rapamycin 2 ng ml-1, PD98059)	IGF-1-induced ERK activation (PI(3)K/Akt/mTOR pathway; PD98059 10 μM)	IGF-1-induced GSK3 phosphorylation (PI(3)K/Akt/mTOR pathway; rapamycin 2 ng ml-1)	p70S6K phosphorylation and kinase activity assayed on the 40S ribosomal subunit (PI(3)K/Akt/mTOR pathway; rapamycin 2 ng ml-1)
C=CC[C@@H]1/C=C(\C)C[C@H](C)C[C@H](OC)[C@H]2O[C@@](O)(C(=O)C(=O)N3CCCC[C@H]3C(=O)O[C@H](/C(C)=C/[C@@H]3CC[C@@H](O)[C@H](OC)C3)[C@H](C)[C@@H](O)CC1=O)[C@H](C)C[C@@H]2OC [FK506]	unable to prevent the increase in muscle weight										
CO[C@H]1C[C@@H]2CC[C@@H](C)[C@@](O)(O2)C(=O)C(=O)N2CCCC[C@H]2C(=O)O[C@H]([C@H](C)C[C@@H]2CC[C@@H](O)[C@H](OC)C2)CC(=O)[C@H](C)/C=C(\C)[C@@H](O)[C@@H](OC)C(=O)[C@H](C)C[C@H](C)/C=C/C=C/C=C/1C [rapamycin]		significantly blunted IGF-induced hypertrophy	could be blocked	markedly blocked the muscle growth	almost completely prevented	almost completely prevented					
O=c1cc(N2CCOCC2)oc2c(-c3ccccc3)cccc12 [LY294002]		completely blocked IGF-induced hypertrophy					mild atrophy of control myotubes	blocked all measured activations	did not affect ERK activation	blocked	is blocked
